Test results reported in PubChem BioAssay AID1671190 (National Center for Advancing Translational Sciences (NCATS), 2021).
In all, about 580,000 compounds went through this assay and about 6,100 (1.1%) were called active. Inconclusive means that the source gave no clear call. Such entries were picked first, then a sample of the others. The call rests on the fitted dose curve; in most records, active means well fitted inhibition curve with a large enough effect; inconclusive means small, poorly fitted or top-dose-only effect, or another doubt; inactive means no such curve, though single readings can be large or run the other way. Potencies of inconclusive entries are doubtful fits and often do not repeat.

Chains of the proteins cited; added tags and fusions are not shown. Lines headed by an entry give the natural chain unless they say otherwise; changes in a name come on top.
UniProt P18054: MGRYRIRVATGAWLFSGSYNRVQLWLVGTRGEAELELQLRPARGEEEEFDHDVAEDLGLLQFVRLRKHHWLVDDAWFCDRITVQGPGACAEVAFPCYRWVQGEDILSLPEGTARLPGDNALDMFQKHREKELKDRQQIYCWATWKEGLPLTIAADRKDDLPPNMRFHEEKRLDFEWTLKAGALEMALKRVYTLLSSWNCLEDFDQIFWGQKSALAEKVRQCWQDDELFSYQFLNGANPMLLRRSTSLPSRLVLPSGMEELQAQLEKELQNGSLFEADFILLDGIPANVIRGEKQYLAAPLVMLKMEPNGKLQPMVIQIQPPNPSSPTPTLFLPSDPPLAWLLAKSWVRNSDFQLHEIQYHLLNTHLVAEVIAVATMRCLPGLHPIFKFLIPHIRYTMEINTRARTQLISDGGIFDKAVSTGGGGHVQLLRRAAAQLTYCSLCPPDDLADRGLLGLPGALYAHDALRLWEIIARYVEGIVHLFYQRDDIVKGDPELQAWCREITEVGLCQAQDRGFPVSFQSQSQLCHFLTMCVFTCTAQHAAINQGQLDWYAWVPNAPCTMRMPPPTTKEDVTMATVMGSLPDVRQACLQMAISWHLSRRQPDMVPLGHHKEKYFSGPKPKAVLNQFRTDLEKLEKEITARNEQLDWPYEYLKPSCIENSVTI

Target: Polyunsaturated fatty acid lipoxygenase ALOX12 (Homo sapiens) (UniProt P18054)
Experiment: Primary qHTS assay for inhibitors of human arachidonate 12S-lipoxygenase (ALOX12): Round 2
Details: purified 12hLO, xylenol orange hydroperoxide absorbance; activity change, negative = inhibition: at 108 µM (top of the series) unless noted
Procedure, shortened: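 Hydroperoxide product was detected by ferrous iron/xylenol orange as the 573 to 405 nm absorbance ratio. Arachidonic acid at 40 uM (final) was turned over for 30 min at room temperature by 150 nM human 12hLO, pH 7.0 Hepes buffer, after 15 min compound preincubation.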
On the % scale 0 is the no-effect control and ±100 the full control effect; potency means the concentration at half of the fitted maximal effect.

| SMILES | Potency | activity change, negative = inhibition |
| --- | --- | --- |
| Cc1ccc(N(Cc2cc(=O)[nH]c3ccccc23)C(=O)c2ccncc2)cc1 | inconclusive: 50.1 µM [inhibitor, partial curve, poor fit] | – |
| COc1ccccc1NS(=O)(=O)c1ccc2oc(SCc3ccc(C#N)cc3)nc2c1 | inactive | – |
| O=C(O)CSc1cc(NS(=O)(=O)c2cccc([N+](=O)[O-])c2)c2ccccc2c1O | inconclusive: 25.1 µM [inhibitor, partial curve, poor fit] | – |
| COc1ccc(-c2nc(NC(=O)C3CC(=O)N(c4ccc5c(c4)OCCO5)C3)sc2C)cc1 (stereo unspecified) | inactive | – |
| Cc1nc(N2CCN(C(=O)c3ccco3)CC2)c2c3c(sc2n1)CCC3 | inconclusive: 44.7 µM [inhibitor, partial curve, poor fit] | – |
| COc1ccc(NC(=O)c2c(NC(=O)c3cccc(C)c3)sc3c2CCC3)cc1 | inactive | – |
| Oc1ccc(-c2nc(C3CC3)nc3c2CCN(Cc2cccc(F)c2)CC3)cc1 | inconclusive: 56.2 µM [inhibitor, single point] | – |
| COC(=O)c1cnc(/C=C/c2cccc(OC(C)C(=O)O)c2)s1 (stereo unspecified) | inconclusive: 39.8 µM [inhibitor, partial curve, poor fit] | – |
| COCCn1c(=O)[nH]c2cc(C(=O)NCCN3CCN(c4ccc(OC)cc4)CC3)ccc2c1=O | inactive | – |
| COc1ccc2c(C)c(CC(=O)NCCN3CCOCC3)c(=O)oc2c1OC | inactive | – |
| O=C(OCc1ccc([N+](=O)[O-])cc1)C1CC2CCCC(C1)C2=O (stereo unspecified) | inconclusive: 14.1 µM [inhibitor, full curve, poor fit] | – |
| NC(=S)N/N=C/c1ccc2c(c1)OCCO2 | inconclusive: 112 µM [inhibitor, single point] | – |
| Cc1cc(SCC(=O)NC(=O)NCc2ccccc2)nc2ccccc12 | inconclusive: 31.6 µM [inhibitor, partial curve, poor fit] | – |
| COc1ccc(-c2nc(SCC(=O)NCc3nc4ccccc4n3C)n3[nH]c(=O)cc3n2)cc1 | – | inconclusive: -30.2% [inhibitor] |
| CCOc1ccc(S(=O)(=O)NCCSc2ccccc2)cc1 | inconclusive: 7.94 µM [inhibitor, full curve, poor fit] | – |
| CC(C)(C)OC(=O)N1C[C@H](O)C[C@H]1C(=O)OCC(=O)c1ccc([N+](=O)[O-])cc1 | inactive | – |
| COc1ccc2nc(SCC(=O)Nc3ncccn3)[nH]c2c1 | inconclusive: 28.2 µM [inhibitor, single point] | – |
| COc1ccc(-c2noc(CCC(=O)NC3CCCCCC3)n2)cc1OC | inconclusive: 112 µM [inhibitor, single point] | – |
| C[N+](C)(C)c1ccc(/C=N/N=C/c2ccccc2)cc1 | active: 11.2 µM | – |
| CCOC(=O)C1CCCN(C(=O)Cc2ccc(N(Cc3ccccc3)C(=O)c3ccco3)cc2)C1 (stereo unspecified) | inactive | – |
| CC(C)N(C)c1ncnc2c1ncn2[C@H]1CN(Cc2ccco2)C[C@@H](CO)O1 | – | inconclusive: -38.2% [inhibitor] |
| C/C(=N/Nc1ccc(S(=O)(=O)Nc2ccccc2)cc1[N+](=O)[O-])c1ccccn1 | inconclusive: 44.7 µM [inhibitor, partial curve, poor fit] | – |

| SMILES | Potency | activity change, negative = inhibition |
| --- | --- | --- |
| O=C(O)c1ccccc1/C=N/N1CCN(C2c3ccccc3-c3ccccc32)CC1 | inconclusive: 39.8 µM [inhibitor, partial curve, poor fit] | – |
| O=C(CSc1nc2c(c(=O)[nH]1)CCC2)Nc1cccc(O)c1 | inconclusive: 56.2 µM [inhibitor, partial curve, poor fit] | – |
| CN(C)C(/C=C/Nc1ccc(Br)cc1)=C(C#N)C#N | inconclusive: 35.5 µM [inhibitor, partial curve, poor fit] | – |
| O=C(O)c1ccc(-n2nnc3ccccc32)c([N+](=O)[O-])c1 | inactive | – |
| Cc1ccc2oc(-c3cccc(NC(=O)c4cccc([N+](=O)[O-])c4C)c3)nc2c1 | inconclusive: 89.1 µM [inhibitor, partial curve, poor fit] | – |
| CCc1c(C)sc2nc(N(CCO)CCO)n3nc(-c4ccccc4)nc3c12 | inactive | – |
| COc1ccc(Cn2nnnc2CN2CCc3ccccc3C2)cc1 | inconclusive: 35.5 µM [inhibitor, partial curve, poor fit] | – |
| CC(=O)N1CCN(C(=O)c2c(C)oc3c2CN(Cc2ccc(F)cc2)CC3)CC1 | inconclusive: 31.6 µM [inhibitor, full curve, poor fit] | – |
| CC(=O)OCCCn1c(C)[n+](C)c2cc(Cl)c(Cl)cc21 | inconclusive: 50.1 µM [inhibitor, partial curve, poor fit] | – |
| O=C(Nc1ccccc1F)C1CCCC1 | inconclusive: 141 µM [inhibitor, single point] | – |
| C=CCN(CC=C)C(=S)NC(=O)c1ccc(-c2ccccc2)cc1 | inconclusive: 35.5 µM [inhibitor, partial curve, poor fit] | – |
| COC(=O)CC1C(=O)NCCN1C(=S)Nc1ccccc1 (stereo unspecified) | inactive | – |
| COc1ccc(C(=O)N/C(=C\c2ccco2)C(=O)NCc2ccco2)cc1 | inactive | – |
| O=Cc1cccc(-c2ccc(F)cc2F)c1 | inconclusive: 251 µM [inhibitor, partial curve, poor fit] | – |
| Cn1c(Sc2ncc(C(F)(F)F)cc2Cl)nnc1-c1ccccc1 | inconclusive: 112 µM [inhibitor, single point] | – |
| CCCCCOCC1CC(C/C(C)=N/NC(N)=S)C(=O)O1 (stereo unspecified) | inactive | – |
| O=C1CSc2ccc(C(=O)OCC(=O)c3cccs3)cc2N1 | inconclusive: 50.1 µM [inhibitor, partial curve, poor fit] | – |
| CC(C)C[C@H](CO)NC(=O)C[C@@H]1c2nc(NC(=O)c3ccco3)sc2C[C@@H]2[C@](C)(CO)[C@H](O)CC[C@]21C | inactive | – |
| O=C(/C=C/c1ccccc1)c1ccc(-n2cc(-c3ccccc3)cc2-c2ccccc2)cc1 | inconclusive: 35.5 µM [inhibitor, partial curve, poor fit] | – |
| Cc1ccc(O)c(NC2=C(Cl)C(=O)N(Cc3ccccc3)C2=O)c1 | active: 5.62 µM | – |
| C(=C\c1ccccc1)/CN1CCN(C(c2cccs2)c2nnnn2Cc2ccccc2)CC1 (stereo unspecified) | inconclusive: 100 µM [inhibitor, single point] | – |
| Cc1ccc(S(=O)(=O)NCCc2nnc3ccc(SCc4cccc(F)c4)nn23)cc1 | inactive | – |

3 compounds picked at random from the list so far:

| SMILES | Potency | activity change, negative = inhibition |
| --- | --- | --- |
| CCc1c(C)sc2nc(N(CCO)CCO)n3nc(-c4ccccc4)nc3c12 | inactive | – |
| O=C(O)c1ccccc1/C=N/N1CCN(C2c3ccccc3-c3ccccc32)CC1 | inconclusive: 39.8 µM [inhibitor, partial curve, poor fit] | – |
| O=C1CSc2ccc(C(=O)OCC(=O)c3cccs3)cc2N1 | inconclusive: 50.1 µM [inhibitor, partial curve, poor fit] | – |

(cont.)

| SMILES | Potency | activity change, negative = inhibition |
| --- | --- | --- |
| O=C(C[C@H]1C[C@H](C(=O)N2CCOCC2)[C@@]2(CCC3CCCC3)c3[nH]c4cc(-c5ccco5)ccc4c3CCN2C1=O)NCCN1CCOCC1 | active: 44.7 µM | – |
| COc1ccc(C(=O)NC(=S)Nc2ccccc2N2CCOCC2)cc1[N+](=O)[O-] | inconclusive: 35.5 µM [inhibitor, partial curve, poor fit] | – |
| CCN(CC)C(=O)CSc1nc2sc3c(c2c(=O)n1-c1ccc(C)cc1)CC(C)(C)SC3 | inconclusive: 2.82 µM [inhibitor, full curve, poor fit] | – |
| COc1ccc(-c2nc(C3CC3)nc3c2CCN(C(=O)c2ccccc2)CC3)cc1 | – | inconclusive: -31.8% [inhibitor] |
| COc1ccc2c(c1)-c1nc(NC(=O)c3cc(OC)c(OC)c(OC)c3)sc1CC2 | inconclusive: 50.1 µM [inhibitor, partial curve, poor fit] | – |
| Cc1c(C)n(CCCN(C)C)c2ncn3nc(-c4cccs4)nc3c12 | inactive | – |
| O=C(CP(=O)(c1ccccc1)c1ccccc1)Nc1nc2ccc(Cl)cc2s1 | inactive | – |
| CC(=O)N1c2ccc(S(=O)(=O)N3CCC(C(=O)Nc4cccc(C)c4C)CC3)cc2CC1C (stereo unspecified) | inactive | – |
| CCCCNc1c(-c2ccc(-c3ccc(C(C)=O)cc3)c(OC)c2)nc2cc(C)ccn12 | inconclusive: 89.1 µM [inhibitor, single point] | – |
| CCOc1cc(/C=C2\CN(CC)C/C(=C\c3ccc(O)c(OCC)c3)C2=O)ccc1O | inconclusive: 44.7 µM [inhibitor, partial curve, poor fit] | – |
| COCCNc1nnc(SCC(=O)NNC(=O)c2ccc([N+](=O)[O-])cc2)s1 | inconclusive: 35.5 µM [inhibitor, single point] | – |
| COc1ccc(-c2cc(C(=O)NCC3CCCO3)c3cc(C(C)C)ccc3n2)cc1 (stereo unspecified) | inconclusive: 44.7 µM [inhibitor, partial curve, poor fit] | – |
| CC(C)(C)OC(=O)CNC(=O)c1[nH]cnc1C(=O)NCCCCCNC(=O)OC(C)(C)C | inactive | – |
| CS(=O)(=O)N(CC(=O)N1CCc2ccccc2C1)c1ccccc1 | inconclusive: 0.398 µM [inhibitor, full curve] | – |
| CNc1nc(-c2ccccc2)c(C(=O)Nc2ccccc2)s1 | inconclusive: 25.1 µM [inhibitor, full curve] | – |
| Cc1csc(NC(=O)CCc2ncc(-c3ccc(F)cc3)o2)n1 | inconclusive: 50.1 µM [inhibitor, partial curve, poor fit] | – |
| Cc1nc(SCc2ccc(Cl)cc2)ncc1C(=O)O | inconclusive: 63.1 µM [inhibitor, partial curve, poor fit] | – |
| CC(NC(=O)c1cccnc1)c1ccc(C(F)(F)F)cc1 (stereo unspecified) | inactive | – |
| CC(=O)c1cc(C#N)c(SCC(=O)O)nc1C | inconclusive: 50.1 µM [inhibitor, partial curve, poor fit] | – |
| COc1ccc(C2Sc3ccccc3NC3=C2C(=O)c2ccccc23)cc1OC (stereo unspecified) | inactive | – |
| Cc1ccccc1-c1nn[nH]n1 | inactive | – |
| Cc1ccc(CN2CCN(Cc3cccn3-c3nccs3)CC2CCO)cc1 (stereo unspecified) | inconclusive: 44.7 µM [inhibitor, partial curve, poor fit] | – |
